These are yes or no findings as the source states them, for the method shown. For some assays here: In cells and extracts the contact can be indirect. Some entries that bind do so weakly or less than the wild type. For some assays here: Where a sequence is shown, tags or fusion partners need not be part of it.

Sequences of proteins named here, by UniProt entry; tags and fusion partners are left off.
UniProt Q9LN63: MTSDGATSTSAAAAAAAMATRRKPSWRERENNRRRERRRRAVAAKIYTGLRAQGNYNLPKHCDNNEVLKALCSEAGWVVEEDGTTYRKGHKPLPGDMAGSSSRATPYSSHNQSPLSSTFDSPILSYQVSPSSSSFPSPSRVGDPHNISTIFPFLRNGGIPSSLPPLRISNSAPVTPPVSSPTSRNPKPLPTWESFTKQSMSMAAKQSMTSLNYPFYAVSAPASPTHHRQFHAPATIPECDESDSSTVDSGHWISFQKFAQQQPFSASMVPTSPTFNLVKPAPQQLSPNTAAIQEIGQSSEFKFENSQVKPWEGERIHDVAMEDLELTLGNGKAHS

The target of assay [1] is T1, EIN3 BINDING F-BOX PROTEIN1 (EBF1), two-hybrid bait in pBD-GAL4 (Arabidopsis thaliana) (UniProt Q9SKK0).
T1 sequence: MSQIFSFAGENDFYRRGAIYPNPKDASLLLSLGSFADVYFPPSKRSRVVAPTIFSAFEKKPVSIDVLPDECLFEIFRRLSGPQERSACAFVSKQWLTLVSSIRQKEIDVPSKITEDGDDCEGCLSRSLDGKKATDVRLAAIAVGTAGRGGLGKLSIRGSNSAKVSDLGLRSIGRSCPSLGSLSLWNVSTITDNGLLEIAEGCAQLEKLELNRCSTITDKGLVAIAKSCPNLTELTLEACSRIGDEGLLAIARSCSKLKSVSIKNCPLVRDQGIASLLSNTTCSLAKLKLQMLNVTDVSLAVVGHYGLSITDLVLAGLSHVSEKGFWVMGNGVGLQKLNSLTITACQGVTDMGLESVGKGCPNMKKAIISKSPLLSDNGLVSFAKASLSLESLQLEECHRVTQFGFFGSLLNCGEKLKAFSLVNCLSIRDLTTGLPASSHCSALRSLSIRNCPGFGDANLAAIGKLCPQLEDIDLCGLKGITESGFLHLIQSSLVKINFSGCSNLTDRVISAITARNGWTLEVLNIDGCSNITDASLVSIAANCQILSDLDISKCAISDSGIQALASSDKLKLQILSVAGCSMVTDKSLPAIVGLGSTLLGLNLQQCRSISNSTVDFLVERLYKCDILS
Put plainly: two-hybrid; preys in pAD-GAL4, baits in pBD-GAL4, yeast strain AH109; growth on SD (-Trp-Leu-His) with 1.5 mM 3-AT.

Assay [2] has as its target T2, EBF2, two-hybrid bait in pBD-GAL4 (Arabidopsis thaliana) (UniProt Q708Y0).
T2 sequence: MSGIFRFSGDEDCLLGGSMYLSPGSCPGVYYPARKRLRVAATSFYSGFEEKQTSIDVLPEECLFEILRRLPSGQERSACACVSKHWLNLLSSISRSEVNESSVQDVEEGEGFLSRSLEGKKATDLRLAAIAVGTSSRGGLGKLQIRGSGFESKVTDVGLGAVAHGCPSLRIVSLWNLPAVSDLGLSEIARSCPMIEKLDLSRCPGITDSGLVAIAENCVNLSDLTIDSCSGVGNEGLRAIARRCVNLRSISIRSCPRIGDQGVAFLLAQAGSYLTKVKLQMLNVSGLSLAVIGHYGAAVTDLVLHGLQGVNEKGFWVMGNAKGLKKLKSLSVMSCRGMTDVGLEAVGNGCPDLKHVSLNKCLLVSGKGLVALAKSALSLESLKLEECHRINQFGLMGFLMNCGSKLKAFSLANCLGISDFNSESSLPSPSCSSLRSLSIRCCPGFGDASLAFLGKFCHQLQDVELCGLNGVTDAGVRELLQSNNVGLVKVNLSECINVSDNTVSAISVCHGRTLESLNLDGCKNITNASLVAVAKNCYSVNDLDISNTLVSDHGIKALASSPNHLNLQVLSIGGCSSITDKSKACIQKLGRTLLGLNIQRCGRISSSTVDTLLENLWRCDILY
The description is as above.

Assay [3] has as its target BZR1-cYFP (Arabidopsis thaliana) (UniProt Q8S307). Put plainly: split reporter; BiFC of cYFP and nYFP fusions in Arabidopsis mesophyll protoplasts, 10 h at 22 °C, confocal microscopy.
For assay [4], the target named is BZR1-GFP (pro35S:BZR1-GFP) (Arabidopsis thaliana) (UniProt Q8S307). Kind of assay: co-IP; Arabidopsis Col-0 protoplasts co-expressing EBF1-MYC and BZR1-GFP; lysate on GFP-Trap magnetic beads; 20 mM HEPES-KOH pH 7.5, 40 mM KCl, 1 mM EDTA, 0.5% Triton X-100; blots with anti-MYC and anti-YFP.

Take “BRASSINAZOLE-…1 (BZR1), two-hybrid prey in pAD-GAL4 (from UniProt Q8S307 1-336)”: the binding result in assay [1] was “binds”.

As for “BRI1-EMS-SUPPRESSOR1 (BES1), two-hybrid prey in pAD-GAL4 (from UniProt Q9LN63 1-335)”, the binding result in assay [1] and in assay [2] was “binds” throughout.

B1: EBF1-nYFP (protein, UniProt Q9SKK0 1-628)
chain: MSQIFSFAGENDFYRRGAIYPNPKDASLLLSLGSFADVYFPPSKRSRVVAPTIFSAFEKKPVSIDVLPDECLFEIFRRLSGPQERSACAFVSKQWLTLVSSIRQKEIDVPSKITEDGDDCEGCLSRSLDGKKATDVRLAAIAVGTAGRGGLGKLSIRGSNSAKVSDLGLRSIGRSCPSLGSLSLWNVSTITDNGLLEIAEGCAQLEKLELNRCSTITDKGLVAIAKSCPNLTELTLEACSRIGDEGLLAIARSCSKLKSVSIKNCPLVRDQGIASLLSNTTCSLAKLKLQMLNVTDVSLAVVGHYGLSITDLVLAGLSHVSEKGFWVMGNGVGLQKLNSLTITACQGVTDMGLESVGKGCPNMKKAIISKSPLLSDNGLVSFAKASLSLESLQLEECHRVTQFGFFGSLLNCGEKLKAFSLVNCLSIRDLTTGLPASSHCSALRSLSIRNCPGFGDANLAAIGKLCPQLEDIDLCGLKGITESGFLHLIQSSLVKINFSGCSNLTDRVISAITARNGWTLEVLNIDGCSNITDASLVSIAANCQILSDLDISKCAISDSGIQALASSDKLKLQILSVAGCSMVTDKSLPAIVGLGSTLLGLNLQQCRSISNSTVDFLVERLYKCDILS
For B1, the binding result in assay [3] is on record as “binds”.

B2: EBF1-MYC (pro35S:EBF1-MYC) (protein, UniProt Q9SKK0 1-628)
chain: MSQIFSFAGENDFYRRGAIYPNPKDASLLLSLGSFADVYFPPSKRSRVVAPTIFSAFEKKPVSIDVLPDECLFEIFRRLSGPQERSACAFVSKQWLTLVSSIRQKEIDVPSKITEDGDDCEGCLSRSLDGKKATDVRLAAIAVGTAGRGGLGKLSIRGSNSAKVSDLGLRSIGRSCPSLGSLSLWNVSTITDNGLLEIAEGCAQLEKLELNRCSTITDKGLVAIAKSCPNLTELTLEACSRIGDEGLLAIARSCSKLKSVSIKNCPLVRDQGIASLLSNTTCSLAKLKLQMLNVTDVSLAVVGHYGLSITDLVLAGLSHVSEKGFWVMGNGVGLQKLNSLTITACQGVTDMGLESVGKGCPNMKKAIISKSPLLSDNGLVSFAKASLSLESLQLEECHRVTQFGFFGSLLNCGEKLKAFSLVNCLSIRDLTTGLPASSHCSALRSLSIRNCPGFGDANLAAIGKLCPQLEDIDLCGLKGITESGFLHLIQSSLVKINFSGCSNLTDRVISAITARNGWTLEVLNIDGCSNITDASLVSIAANCQILSDLDISKCAISDSGIQALASSDKLKLQILSVAGCSMVTDKSLPAIVGLGSTLLGLNLQQCRSISNSTVDFLVERLYKCDILS
For B2, the binding result in assay [4] is on record as “binds”.

These data come from article PMC9785488, “EBF1 Negatively Regulates Brassinosteroid-Induced Apical Hook Development and Cell Elongation through Promoting BZR1 Degradation” (International Journal of Molecular Sciences, 2022).
